By UniProt entry, the sequences of proteins in these tests, tags left out.
UniProt Q61768: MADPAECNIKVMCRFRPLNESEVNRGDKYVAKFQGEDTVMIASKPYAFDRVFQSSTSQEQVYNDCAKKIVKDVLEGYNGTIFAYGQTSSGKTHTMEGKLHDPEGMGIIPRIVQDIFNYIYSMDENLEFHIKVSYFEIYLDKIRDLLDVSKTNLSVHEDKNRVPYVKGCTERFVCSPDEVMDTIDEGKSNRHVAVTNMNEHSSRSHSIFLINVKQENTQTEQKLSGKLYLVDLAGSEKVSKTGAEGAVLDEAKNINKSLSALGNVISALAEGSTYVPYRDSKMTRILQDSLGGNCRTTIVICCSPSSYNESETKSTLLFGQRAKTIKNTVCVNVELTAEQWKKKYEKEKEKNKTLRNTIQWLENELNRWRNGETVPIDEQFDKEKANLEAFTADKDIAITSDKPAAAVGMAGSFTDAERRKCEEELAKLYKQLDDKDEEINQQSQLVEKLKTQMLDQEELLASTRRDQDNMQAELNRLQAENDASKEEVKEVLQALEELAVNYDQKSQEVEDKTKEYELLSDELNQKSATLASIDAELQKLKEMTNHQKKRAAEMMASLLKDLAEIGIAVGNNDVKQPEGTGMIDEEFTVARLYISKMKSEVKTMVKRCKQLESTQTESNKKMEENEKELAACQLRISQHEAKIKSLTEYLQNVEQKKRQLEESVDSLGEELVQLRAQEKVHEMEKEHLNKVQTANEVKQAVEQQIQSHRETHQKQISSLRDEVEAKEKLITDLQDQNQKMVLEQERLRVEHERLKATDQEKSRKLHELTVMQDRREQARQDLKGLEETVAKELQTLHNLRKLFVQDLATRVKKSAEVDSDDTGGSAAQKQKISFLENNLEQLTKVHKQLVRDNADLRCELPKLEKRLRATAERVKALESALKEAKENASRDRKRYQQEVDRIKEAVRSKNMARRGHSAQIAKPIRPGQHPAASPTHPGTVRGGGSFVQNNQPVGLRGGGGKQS
UniProt P33175: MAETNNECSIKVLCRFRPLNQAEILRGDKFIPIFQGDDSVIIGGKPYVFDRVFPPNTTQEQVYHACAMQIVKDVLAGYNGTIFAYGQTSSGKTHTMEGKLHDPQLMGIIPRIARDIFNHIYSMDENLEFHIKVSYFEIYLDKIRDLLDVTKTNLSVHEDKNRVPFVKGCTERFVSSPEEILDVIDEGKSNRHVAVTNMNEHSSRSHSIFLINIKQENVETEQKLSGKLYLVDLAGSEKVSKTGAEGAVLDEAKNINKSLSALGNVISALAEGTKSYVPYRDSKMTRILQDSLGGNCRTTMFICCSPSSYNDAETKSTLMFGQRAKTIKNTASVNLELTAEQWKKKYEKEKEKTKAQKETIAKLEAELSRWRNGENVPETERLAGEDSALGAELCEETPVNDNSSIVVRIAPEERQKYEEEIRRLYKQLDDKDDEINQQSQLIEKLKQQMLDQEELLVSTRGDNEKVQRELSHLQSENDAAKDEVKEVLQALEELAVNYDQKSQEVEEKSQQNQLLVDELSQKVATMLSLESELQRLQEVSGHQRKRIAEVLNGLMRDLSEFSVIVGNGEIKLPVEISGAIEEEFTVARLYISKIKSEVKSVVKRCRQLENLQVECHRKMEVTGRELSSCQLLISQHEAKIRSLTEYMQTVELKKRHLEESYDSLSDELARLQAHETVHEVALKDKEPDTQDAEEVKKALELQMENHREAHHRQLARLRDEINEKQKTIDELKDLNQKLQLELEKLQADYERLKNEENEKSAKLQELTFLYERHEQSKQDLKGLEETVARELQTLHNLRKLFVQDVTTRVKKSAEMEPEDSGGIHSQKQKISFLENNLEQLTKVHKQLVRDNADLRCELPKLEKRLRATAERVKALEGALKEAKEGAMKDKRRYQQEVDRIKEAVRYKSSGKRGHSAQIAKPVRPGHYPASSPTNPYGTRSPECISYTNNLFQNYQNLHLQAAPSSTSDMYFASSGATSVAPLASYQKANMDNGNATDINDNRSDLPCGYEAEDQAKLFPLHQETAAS
UniProt P28738: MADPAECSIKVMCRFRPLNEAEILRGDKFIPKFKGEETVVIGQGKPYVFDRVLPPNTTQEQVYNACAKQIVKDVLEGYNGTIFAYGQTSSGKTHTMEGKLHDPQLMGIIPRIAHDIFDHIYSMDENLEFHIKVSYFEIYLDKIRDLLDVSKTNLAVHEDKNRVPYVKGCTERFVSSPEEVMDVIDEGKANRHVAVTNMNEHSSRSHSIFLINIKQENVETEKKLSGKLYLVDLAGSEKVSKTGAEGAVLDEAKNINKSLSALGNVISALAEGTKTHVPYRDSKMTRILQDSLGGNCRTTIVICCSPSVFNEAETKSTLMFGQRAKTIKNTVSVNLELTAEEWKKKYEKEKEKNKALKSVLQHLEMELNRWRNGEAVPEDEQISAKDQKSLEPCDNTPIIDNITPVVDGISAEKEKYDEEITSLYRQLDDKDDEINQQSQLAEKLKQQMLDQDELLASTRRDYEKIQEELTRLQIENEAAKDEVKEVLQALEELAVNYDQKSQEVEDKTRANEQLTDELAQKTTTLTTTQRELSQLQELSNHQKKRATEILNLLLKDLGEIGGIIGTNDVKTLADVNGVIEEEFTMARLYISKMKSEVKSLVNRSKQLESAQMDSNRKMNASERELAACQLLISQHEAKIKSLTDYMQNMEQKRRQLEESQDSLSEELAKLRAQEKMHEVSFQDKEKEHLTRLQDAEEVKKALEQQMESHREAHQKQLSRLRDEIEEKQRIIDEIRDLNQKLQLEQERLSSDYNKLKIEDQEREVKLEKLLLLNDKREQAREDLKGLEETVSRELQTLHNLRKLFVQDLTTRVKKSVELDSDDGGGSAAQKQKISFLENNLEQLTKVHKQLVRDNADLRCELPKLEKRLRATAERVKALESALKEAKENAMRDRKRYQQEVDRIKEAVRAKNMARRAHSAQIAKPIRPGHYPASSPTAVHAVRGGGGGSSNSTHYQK

According to paper PMC8034861:

What follows are substances tested against T1, PR30 peptide (30 repeats of proline-arginine), unlabelled (human) (assay: affinity purification with mass spectrometry; 50 μM PR30 added to 0.5 mg soluble mouse spinal cord lysate in PBS (400 μl), 15 min; peptide-induced condensates pelleted at 3220g, washed three times with PBS; LC-MS/MS; some samples cross-linked with 0.5% paraformaldehyde; only the target purified).
T1 sequence (peptide): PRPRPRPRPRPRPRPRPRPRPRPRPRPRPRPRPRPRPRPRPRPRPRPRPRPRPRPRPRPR

binding, binds:
Kif5B (kinesin-1 isoform), mouse spinal cord (from UniProt Q61768 1-963)
Kif5A (kinesin-1 isoform), mouse spinal cord (from UniProt P33175 1-1027)
Kif5C (kinesin-1 isoform), mouse spinal cord (from UniProt P28738 1-956)

These are yes or no findings as the source states them, for the method shown. Binding seen in cells or lysates may run through a third protein. Here binding means that the protein was enriched with, or labelled near, the bait; the list need not be complete.
